# Laboratory results: the supplement of paper PMC4604168 (melanoma cell lines)
# The other results are listed elsewhere or left out. Many values rest on one well or one pass, so single values are uncertain.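 Imaging used 1,536-well plates; nuclei positive for cleaved PARP by antibody were divided by total DNA-stained nuclei to yield the apoptosis fraction. Doses for screening kept most cells viable, and cell lines differ markedly in resting and induced cleaved-PARP levels.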
# System: WM451Lu
# Assay: cleaved PARP positive nuclei fraction relative to DMSO control; melanoma cells; higher = more apoptosis
# Details: library dose: low library concentration; 72 h
row,Structure (SMILES),cleaved PARP positive nuclei fraction [%]
1,"O=c1[nH]nc(Sc2ncc([N+](=O)[O-])s2)n1-c1ccc2c(c1)OCCO2 + COc1ccc(COc2ccc(Cc3cnc(N)nc3N)cc2OC)cc1 [GW2580] (first compound 0.2 µM, partner dose 1 µM)",46.1
2,"COc1cc([C@@H]2c3cc4c(cc3[C@@H](O[C@@H]3O[C@@H]5CO[C@@H](C)O[C@H]5[C@H](O)[C@H]3O)[C@H]3COC(=O)[C@H]23)OCO4)cc(OC)c1O [etoposide] + O=S(=O)(c1ccccc1)N(CC(F)(F)F)c1ccc(C(O)(C(F)(F)F)C(F)(F)F)cc1 [T0901317] (first compound 0.02 µM, partner dose 1.4 µM)",23.9
3,"O=c1[nH]nc(Sc2ncc([N+](=O)[O-])s2)n1-c1ccc2c(c1)OCCO2 + O=S(=O)(c1ccccc1)N(CC(F)(F)F)c1ccc(C(O)(C(F)(F)F)C(F)(F)F)cc1 [T0901317] (first compound 0.2 µM, partner dose 1.4 µM)",60.5
4,"Cc1cc(Nc2cc(N3CCN(C)CC3)nc(Sc3ccc(NC(=O)C4CC4)cc3)n2)n[nH]1 [Tozasertib] + Cn1cncc1[C@@](N)(c1ccc(Cl)cc1)c1ccc2c(c1)c(-c1cccc(Cl)c1)cc(=O)n2C [tipifarnib] (first compound 0.006 µM, partner dose 0.01 µM)",97.6
5,"CC[C@]1(O)C[C@H]2CN(CCc3c([nH]c4ccccc34)[C@@](C(=O)OC)(c3cc4c(cc3OC)N(C=O)[C@H]3[C@@](O)(C(=O)OC)[C@H](OC(C)=O)[C@]5(CC)C=CCN6CC[C@]43[C@@H]65)C2)C1 [vincristine] + c1cc(-c2cnn3cc(-c4ccc(OCCN5CCCCC5)cc4)cnc23)ccn1 [Dorsomorphin] (first compound 0.0001 µM, partner dose 0.4 µM)",300
